{
  "source": "patent US6632934",
  "binders": {"B1": {"name": "human 123F2 (protein, UniProt Q9NS23-4 1-270, looked up)", "chain": "MGEAEAPSFEMTWSSTTSSGYCSQEDSDSELEQYFTARTSLARRPRRDQDEPVEWETPDLSQAEIEQKIKEYNAQINSNLFMSLNKDGSYTGFIKVQLKLVRPVSVPSSKKPPSLQDARRGPGRGTSVRRRTSFYLPKDAVKHLHVLSRTRAREVIEALLRKFLVVDDPRKFALFERAERHGQVYLRKLLDDEQPLRLRLLAGPSDKALSFVLKENDSGEVNWDAFSMPELHNFLRILQREEEEHLRQILQKYSYCRQKIQEALHACPLG"}, "B2": {"name": "human 123F2 tagged with another epitope (protein, UniProt Q9NS23-4 1-270, looked up, not shown: small tags and cut ends)", "chain": "B1 chain"}},
  "key": {"[1]": {"target": "T1, human Morc (non-mutated) polypeptide (human) (UniProt Q86VD1)", "T1 sequence": "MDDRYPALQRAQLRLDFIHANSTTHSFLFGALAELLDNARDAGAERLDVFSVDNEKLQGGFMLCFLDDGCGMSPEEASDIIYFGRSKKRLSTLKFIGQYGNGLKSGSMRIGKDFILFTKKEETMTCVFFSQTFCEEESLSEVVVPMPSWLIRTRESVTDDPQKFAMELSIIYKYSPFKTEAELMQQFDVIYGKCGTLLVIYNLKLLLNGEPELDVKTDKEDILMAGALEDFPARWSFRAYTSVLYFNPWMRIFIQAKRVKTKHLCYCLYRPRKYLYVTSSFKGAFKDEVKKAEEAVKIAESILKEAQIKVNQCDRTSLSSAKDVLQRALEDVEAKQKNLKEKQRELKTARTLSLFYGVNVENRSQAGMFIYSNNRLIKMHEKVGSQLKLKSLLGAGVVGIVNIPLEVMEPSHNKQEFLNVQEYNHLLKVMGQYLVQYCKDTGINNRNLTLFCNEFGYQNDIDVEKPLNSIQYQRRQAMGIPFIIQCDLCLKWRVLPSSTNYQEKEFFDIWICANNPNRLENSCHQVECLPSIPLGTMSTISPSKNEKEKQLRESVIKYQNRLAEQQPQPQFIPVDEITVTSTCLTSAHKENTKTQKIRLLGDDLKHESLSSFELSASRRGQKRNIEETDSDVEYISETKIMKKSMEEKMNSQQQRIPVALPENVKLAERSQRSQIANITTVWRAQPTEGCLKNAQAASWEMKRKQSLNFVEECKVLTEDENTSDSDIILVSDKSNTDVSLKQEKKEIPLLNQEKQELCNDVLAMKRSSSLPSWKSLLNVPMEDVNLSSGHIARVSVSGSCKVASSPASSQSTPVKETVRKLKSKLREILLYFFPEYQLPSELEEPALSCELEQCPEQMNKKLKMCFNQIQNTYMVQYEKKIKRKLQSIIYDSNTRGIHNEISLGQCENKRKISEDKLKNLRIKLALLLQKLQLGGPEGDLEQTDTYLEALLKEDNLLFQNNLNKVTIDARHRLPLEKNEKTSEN", "assay": "two-hybrid screen of a random human cDNA library with human Morc as bait"}, "[2]": {"target": "T2, human MORC tagged with an epitope (human) (UniProt Q86VD1)", "T2 sequence": "T1 sequence", "assay": "co-transfection of differently epitope-tagged proteins into cells, immunofluorescence microscopy"}},
  "note": "No constants are given. Whether binding was seen depends on the method and setting. Some binding calls cover weakened binding; strength is not graded here. For some assays here: Where a sequence is shown, tags or fusion partners need not be part of it.",
  "data": [
    {"binder": "B1", "values": [
      {"measurement": "binding", "setting": "[1]", "value": "binds"}
    ]},
    {"binder": "B2", "values": [
      {"measurement": "binding", "setting": "[2]", "value": "binds"}
    ]}
  ]
}
